According to the supplement of paper PMC10849652:
The list shows a part of the results. Residues, ends and D or L forms follow the SMILES beside them. *: point of attachment. Cbz = O=C(OCc1ccccc1)*

The chains behind the UniProt entries cited, without tags or fusion partners. Where a name states a change or a piece, a line headed by the entry shows the natural chain unless it says otherwise.
UniProt P22102: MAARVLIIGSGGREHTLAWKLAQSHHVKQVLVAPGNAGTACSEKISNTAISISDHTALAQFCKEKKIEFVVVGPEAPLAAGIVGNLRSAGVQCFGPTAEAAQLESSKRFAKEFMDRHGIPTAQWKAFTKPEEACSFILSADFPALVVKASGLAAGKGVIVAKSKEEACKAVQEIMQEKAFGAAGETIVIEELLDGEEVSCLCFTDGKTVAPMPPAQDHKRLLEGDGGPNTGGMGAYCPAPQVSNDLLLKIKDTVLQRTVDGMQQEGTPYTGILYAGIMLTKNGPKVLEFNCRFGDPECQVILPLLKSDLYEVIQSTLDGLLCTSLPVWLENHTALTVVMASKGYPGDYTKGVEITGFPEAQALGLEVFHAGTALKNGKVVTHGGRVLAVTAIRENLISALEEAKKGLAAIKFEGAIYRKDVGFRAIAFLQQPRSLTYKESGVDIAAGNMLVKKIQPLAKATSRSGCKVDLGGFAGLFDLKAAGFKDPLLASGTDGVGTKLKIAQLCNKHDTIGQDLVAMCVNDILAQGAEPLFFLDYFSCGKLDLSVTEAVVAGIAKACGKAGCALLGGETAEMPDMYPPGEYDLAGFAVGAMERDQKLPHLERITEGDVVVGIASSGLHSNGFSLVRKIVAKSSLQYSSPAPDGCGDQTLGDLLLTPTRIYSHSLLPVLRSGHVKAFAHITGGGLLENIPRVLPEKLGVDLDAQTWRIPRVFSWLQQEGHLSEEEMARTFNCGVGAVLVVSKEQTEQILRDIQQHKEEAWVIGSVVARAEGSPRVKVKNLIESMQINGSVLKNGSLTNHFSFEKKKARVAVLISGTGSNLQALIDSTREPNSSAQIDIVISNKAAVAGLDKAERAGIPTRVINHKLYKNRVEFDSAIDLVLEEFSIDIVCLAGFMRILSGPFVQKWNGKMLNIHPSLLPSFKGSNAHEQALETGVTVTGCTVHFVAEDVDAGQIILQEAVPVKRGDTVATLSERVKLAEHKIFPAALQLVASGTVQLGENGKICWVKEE
UniProt P34059: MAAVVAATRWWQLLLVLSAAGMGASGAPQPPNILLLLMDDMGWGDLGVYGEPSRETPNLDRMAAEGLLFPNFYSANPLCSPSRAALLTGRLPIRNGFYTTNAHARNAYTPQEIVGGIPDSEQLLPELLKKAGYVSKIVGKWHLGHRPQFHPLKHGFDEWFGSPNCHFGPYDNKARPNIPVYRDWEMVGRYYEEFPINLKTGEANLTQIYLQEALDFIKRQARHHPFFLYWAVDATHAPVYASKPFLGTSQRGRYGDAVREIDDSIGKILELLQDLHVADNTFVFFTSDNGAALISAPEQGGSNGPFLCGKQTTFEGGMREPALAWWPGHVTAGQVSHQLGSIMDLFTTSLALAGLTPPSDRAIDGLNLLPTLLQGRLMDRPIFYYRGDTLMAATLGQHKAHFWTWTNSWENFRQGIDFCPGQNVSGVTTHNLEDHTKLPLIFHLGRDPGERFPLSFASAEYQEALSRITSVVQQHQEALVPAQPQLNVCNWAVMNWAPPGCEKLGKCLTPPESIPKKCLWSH
UniProt O75600: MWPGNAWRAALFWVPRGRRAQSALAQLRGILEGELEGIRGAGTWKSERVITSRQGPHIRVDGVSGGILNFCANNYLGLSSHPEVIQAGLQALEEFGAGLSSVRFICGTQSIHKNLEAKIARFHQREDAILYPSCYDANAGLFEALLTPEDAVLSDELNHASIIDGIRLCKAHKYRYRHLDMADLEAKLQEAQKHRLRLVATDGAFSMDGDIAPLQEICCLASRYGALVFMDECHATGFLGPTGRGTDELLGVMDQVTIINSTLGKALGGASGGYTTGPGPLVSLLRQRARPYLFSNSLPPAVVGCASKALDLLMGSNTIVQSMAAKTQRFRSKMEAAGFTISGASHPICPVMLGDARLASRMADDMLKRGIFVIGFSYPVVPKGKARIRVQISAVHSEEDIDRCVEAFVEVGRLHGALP
UniProt P41250: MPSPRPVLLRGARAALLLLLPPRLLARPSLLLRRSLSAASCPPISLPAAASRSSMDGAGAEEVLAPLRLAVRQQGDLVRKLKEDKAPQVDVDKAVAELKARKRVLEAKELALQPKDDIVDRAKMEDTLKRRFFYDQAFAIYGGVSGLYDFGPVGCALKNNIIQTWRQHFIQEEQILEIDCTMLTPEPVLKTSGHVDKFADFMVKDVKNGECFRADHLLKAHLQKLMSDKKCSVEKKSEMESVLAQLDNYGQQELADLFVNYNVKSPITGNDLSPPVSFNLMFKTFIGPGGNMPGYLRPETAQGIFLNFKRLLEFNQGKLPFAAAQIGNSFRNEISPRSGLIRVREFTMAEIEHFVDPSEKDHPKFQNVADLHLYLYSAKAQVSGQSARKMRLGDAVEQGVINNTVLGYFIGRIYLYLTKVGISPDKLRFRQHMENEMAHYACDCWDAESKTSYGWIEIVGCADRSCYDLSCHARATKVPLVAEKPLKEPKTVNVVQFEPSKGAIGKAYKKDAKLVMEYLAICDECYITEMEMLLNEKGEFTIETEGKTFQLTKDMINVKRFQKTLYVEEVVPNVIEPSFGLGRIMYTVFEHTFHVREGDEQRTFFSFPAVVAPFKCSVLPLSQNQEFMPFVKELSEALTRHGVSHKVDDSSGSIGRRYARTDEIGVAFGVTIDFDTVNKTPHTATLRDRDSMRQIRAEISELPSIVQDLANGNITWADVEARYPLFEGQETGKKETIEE
UniProt Q86SF2: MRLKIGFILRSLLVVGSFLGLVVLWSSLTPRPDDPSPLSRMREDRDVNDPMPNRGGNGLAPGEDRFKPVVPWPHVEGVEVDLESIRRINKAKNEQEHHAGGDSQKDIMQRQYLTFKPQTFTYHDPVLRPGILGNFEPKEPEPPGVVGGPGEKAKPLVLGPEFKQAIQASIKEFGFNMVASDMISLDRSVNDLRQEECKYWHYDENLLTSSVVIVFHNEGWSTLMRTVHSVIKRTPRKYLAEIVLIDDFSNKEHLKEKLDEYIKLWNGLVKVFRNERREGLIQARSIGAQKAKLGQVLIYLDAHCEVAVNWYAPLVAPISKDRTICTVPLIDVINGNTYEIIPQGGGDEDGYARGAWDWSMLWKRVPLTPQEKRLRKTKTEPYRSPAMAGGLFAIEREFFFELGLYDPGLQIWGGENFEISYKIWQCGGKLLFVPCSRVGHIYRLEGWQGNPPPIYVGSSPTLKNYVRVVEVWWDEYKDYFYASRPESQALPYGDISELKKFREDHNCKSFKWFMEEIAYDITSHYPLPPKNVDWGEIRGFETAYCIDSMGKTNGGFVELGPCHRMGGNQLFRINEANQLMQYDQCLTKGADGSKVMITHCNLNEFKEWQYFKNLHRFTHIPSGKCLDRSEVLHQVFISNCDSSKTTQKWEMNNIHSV
UniProt P11413, whole entry, looked up: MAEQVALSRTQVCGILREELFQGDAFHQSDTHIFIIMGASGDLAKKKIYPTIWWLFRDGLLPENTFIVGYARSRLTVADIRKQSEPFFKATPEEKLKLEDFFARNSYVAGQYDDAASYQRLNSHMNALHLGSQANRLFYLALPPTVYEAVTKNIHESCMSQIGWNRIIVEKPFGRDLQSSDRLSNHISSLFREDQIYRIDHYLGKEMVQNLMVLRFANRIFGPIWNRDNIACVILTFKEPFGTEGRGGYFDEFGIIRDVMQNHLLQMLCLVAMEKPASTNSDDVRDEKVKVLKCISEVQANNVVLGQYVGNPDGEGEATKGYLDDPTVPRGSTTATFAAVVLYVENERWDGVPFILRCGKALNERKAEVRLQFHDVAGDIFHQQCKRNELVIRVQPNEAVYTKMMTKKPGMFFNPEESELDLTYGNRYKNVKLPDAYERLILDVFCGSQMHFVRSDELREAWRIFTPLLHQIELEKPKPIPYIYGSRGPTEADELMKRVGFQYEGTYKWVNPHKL
UniProt Q9UPW0: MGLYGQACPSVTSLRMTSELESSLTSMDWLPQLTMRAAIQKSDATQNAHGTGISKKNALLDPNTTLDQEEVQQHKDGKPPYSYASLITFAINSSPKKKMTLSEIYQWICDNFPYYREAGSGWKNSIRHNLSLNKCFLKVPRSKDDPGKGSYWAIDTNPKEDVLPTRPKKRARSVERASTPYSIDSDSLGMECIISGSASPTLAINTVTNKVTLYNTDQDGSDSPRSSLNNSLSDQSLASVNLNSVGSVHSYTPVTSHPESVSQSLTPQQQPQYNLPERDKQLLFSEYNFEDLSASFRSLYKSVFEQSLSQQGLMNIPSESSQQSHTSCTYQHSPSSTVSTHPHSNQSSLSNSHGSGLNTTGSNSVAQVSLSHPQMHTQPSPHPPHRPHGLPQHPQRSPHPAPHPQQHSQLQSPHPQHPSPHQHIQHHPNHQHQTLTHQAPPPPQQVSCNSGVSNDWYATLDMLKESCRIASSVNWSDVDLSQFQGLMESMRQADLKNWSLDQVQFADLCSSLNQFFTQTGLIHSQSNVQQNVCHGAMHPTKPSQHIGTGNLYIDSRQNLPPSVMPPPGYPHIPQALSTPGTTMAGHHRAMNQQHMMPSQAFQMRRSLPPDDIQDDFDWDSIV
UniProt Q14376: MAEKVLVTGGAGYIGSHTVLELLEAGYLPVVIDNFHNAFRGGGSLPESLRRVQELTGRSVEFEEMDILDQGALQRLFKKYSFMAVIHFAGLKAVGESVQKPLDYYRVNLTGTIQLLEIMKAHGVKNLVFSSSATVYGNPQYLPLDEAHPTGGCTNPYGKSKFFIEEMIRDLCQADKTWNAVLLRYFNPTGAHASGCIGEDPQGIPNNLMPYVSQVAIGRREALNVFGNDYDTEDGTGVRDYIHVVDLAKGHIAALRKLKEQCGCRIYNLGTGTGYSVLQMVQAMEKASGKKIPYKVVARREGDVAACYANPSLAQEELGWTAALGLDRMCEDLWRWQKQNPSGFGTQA
UniProt P09958, whole entry, looked up: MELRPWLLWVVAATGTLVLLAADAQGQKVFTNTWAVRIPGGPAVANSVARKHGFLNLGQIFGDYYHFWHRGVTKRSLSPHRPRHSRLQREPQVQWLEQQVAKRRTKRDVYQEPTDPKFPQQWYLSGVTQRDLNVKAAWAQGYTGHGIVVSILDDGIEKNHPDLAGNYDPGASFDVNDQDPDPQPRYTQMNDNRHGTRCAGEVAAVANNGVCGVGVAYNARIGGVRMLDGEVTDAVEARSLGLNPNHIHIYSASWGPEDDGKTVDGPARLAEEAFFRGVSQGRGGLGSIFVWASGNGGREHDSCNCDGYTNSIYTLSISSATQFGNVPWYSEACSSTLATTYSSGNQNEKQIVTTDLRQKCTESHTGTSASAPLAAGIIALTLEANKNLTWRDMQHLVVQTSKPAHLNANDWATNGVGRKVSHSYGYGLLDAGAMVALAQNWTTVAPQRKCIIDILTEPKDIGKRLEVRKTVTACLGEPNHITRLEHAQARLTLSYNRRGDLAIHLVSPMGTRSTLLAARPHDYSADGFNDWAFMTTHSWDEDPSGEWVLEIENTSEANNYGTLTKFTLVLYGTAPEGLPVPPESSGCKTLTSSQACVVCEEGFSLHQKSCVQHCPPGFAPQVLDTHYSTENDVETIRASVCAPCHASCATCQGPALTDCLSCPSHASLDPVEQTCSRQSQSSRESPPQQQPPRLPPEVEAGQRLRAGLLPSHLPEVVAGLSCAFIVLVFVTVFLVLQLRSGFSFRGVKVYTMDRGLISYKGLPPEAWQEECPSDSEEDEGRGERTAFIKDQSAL
UniProt P02792: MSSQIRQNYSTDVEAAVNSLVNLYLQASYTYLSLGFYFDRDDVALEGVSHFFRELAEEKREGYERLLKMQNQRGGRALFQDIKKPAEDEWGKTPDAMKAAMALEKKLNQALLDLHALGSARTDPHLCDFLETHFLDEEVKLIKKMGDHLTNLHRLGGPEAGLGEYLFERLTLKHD
UniProt Q9UJY5: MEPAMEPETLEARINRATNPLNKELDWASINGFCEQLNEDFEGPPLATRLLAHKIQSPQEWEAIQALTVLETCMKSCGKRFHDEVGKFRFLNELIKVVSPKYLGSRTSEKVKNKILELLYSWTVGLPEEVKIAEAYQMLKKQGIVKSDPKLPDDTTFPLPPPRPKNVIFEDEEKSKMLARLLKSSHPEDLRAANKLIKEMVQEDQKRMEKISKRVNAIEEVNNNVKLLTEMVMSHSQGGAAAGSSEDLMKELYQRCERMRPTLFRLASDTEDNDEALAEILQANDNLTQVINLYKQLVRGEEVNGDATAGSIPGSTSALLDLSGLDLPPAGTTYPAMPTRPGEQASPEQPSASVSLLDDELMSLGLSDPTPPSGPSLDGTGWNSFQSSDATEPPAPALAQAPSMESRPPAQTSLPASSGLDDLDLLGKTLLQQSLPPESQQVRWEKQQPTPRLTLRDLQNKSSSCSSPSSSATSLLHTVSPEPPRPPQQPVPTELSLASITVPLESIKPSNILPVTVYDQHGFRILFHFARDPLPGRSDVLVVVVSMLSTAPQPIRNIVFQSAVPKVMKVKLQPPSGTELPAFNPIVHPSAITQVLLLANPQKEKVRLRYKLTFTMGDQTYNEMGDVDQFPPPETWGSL
UniProt Q6NT46: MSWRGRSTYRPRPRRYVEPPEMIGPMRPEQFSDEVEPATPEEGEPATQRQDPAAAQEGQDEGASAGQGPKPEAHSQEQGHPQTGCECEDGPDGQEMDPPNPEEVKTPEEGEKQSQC

Columns and labels:
Assay in all cases: log2 fold change, soluble protein after heating vs DMSO (PISA); higher = thermal stabilisation; K562 cells, 10 uM, 30 min; active = over 0.2 and 3.5 SD of the protein, either way, in both replicates (recomputed)
[1] = compound: C#Cc1cccc(Nc2ncnc3cc(OCCOC)c(OCCOC)cc23)c1 [erlotinib]
Method in brief: (§1)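 Aliquots of K562 cells (2×10^6 cells/mL) treated with 10 μM compound for 30 min were heated for 3 min over 48°C-58°C. After pooling and extraction in PBS with 0.5% NP-40 at 4°C, soluble protein from a 21,000xg, 90 min spin was quantified by TMTpro 16plex LC-MS/MS with channel sums equalised. Thermal stability is expressed against control samples, from duplicates, as a log2 fold change.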

[2] = compound: C/C(=N\NC(=O)C1=CC(=CC=C1)S(=O)(=O)N2CCOCC2)/C3=C(C=CC(=C3)Cl)O
Method in brief: as §1

[3] = compound: C1=CC(=C(C=C1Cl)C2=NC3=NC=CN=C3C(=N2)NC4=CC=NC=C4)F
Method in brief: as §1

[4] = compound: C1=CC(=CC=C1C2=NC3=C(N2)C=C(C=C3)C(=O)N)OC4=CC=C(C=C4)Cl
Method in brief: as §1

[5] = compound: C1=CC2=C(C=CC(=C2)/C=C\3/C(=O)NC(=NCC4=CC=CS4)S3)N=C1
Method in brief: as §1

[6] = compound: C1=CC2=NC=CN=C2C=C1/C=C/3\C(=O)NC(=O)S3
Method in brief: as §1

[7] = compound: C1=CC=C(C=C1)C2=NC(=C(N2)C3=CC=NC=C3)C4=CC(=C(C=C4)Cl)O
Method in brief: as §1

[8] = compound: C1=CC=C2C(=C1)C3=NNC4=CC=CC(=C43)C2=O
Method in brief: as §1

[9] = compound: C1CCN(C1)C(=O)NC2=CC=CC(=C2)NC3=NC=C(C(=N3)NCCC4=CN=CN4)Br
Method in brief: as §1

[10] = compound: C1CN(CCC1(CC2=CC=C(C=C2)Cl)N)C3=NC=NC4=C3C=CN4
Method in brief: as §1

[11] = compound: C1COCCN1CCN2C3=CC=CC=C3N=C2NC(=O)C4=CC(=CC=C4)[N+](=O)[O-] [IRAK-1-4 Inhibitor I]
Method in brief: as §1

[12] = compound: C=CC(=O)N1CCC[C@@H](n2nc(-c3ccc(Oc4ccccc4)cc3)c3c(N)ncnc32)C1 [ibrutinib]
Method in brief: as §1

[13] = compound: CC(=O)c1cnc2ccc(-c3cc(Cl)c(O)c(Cl)c3)nc2c1N[C@H]1CC[C@H](CN(C)C)CC1
Method in brief: as §1

[14] = compound: CC(C)(C)Cn1c(N)nc2ccc(-c3[nH]c(C(C)(C)C)nc3-c3ccc(F)cc3)nc21 [ralimetinib]
Method in brief: as §1

[15] = compound: CC(C)(O)CC(=O)NCCn1ccc2ncnc(Nc3ccc(Oc4cccc(C(F)(F)F)c4)c(Cl)c3)c21
Method in brief: as §1

[16] = compound: CC(C)C1=C2N=C(C=C(N2N=C1)NCC3=CC=CC=C3)NCCCCCCN
Method in brief: as §1

[17] = compound: CC(C)C[C@@H](C=O)NC(=O)[C@H](CC(C)C)NC(=O)[C@H](CC(C)C)NC(=O)OCc1ccccc1
Method in brief: as §1

[18] = compound: CC(C)N(C[C@H]1O[C@@H](n2cnc3c(N)ncnc32)[C@H](O)[C@@H]1O)[C@H]1C[C@@H](CCc2nc3cc(C(C)(C)C)ccc3[nH]2)C1 [pinometostat]
Method in brief: as §1

[19] = compound: CC1=C(C(CC(=O)N1)C2=CC=C(C=C2)C(F)(F)F)C(=O)NC3=C(C=C4C(=C3)C=NN4)F
Method in brief: as §1

[20] = compound: CC1=C(C2=C(C=C1)C(=O)C3=CC=CC=C3N2CCCN)C
Method in brief: as §1

Measured: log2 fold change

GART (UniProt P22102)
inactive: [1] 0.064 | [2] 0.093 | [3] 0.034 | [4] -0.032 | [5] 0.074 | [6] -0.025 | [7] 0.118 | [8] 0.043 | [9] 0.003 | [10] -0.064 | [11] -0.041 | [12] -0.008 | [13] -0.013 | [14] 0.006 | [15] 0.009 | [16] -0.188 | [17] -0.045 | [18] 0.021 | [19] -0.05 | [20] 0.003

GALNS (UniProt P34059)
inactive: [1] 0.005 | [2] -0.013 | [3] -0.018 | [4] 0 | [5] 0.049 | [6] -0.043 | [7] 0.002 | [8] -0.019 | [9] 0.008 | [10] -0.016 | [11] -0.072 | [12] 0.039 | [13] -0.017 | [14] 0.043 | [15] 0.018 | [16] 0.1 | [17] -0.026 | [18] 0.047 | [19] -0.037 | [20] -0.002

GCAT isoform 2 (UniProt O75600)
inactive: [1] -0.032 | [2] 0.112 | [3] 0.078 | [4] 0.018 | [5] 0.051 | [6] -0.038 | [7] -0.121 | [8] -0.092 | [9] -0.004 | [10] 0.015 | [11] 0.066 | [12] 0.046 | [13] 0.03 | [14] 0.039 | [15] -0.081 | [16] -0.126 | [17] 0.066 | [18] -0.009 | [19] 0.06 | [20] -0.007

GARS1 (UniProt P41250)
inactive: [1] 0.003 | [2] -0.01 | [3] 0.045 | [4] -0.007 | [5] -0.001 | [6] 0 | [7] -0.028 | [8] -0.016 | [9] 0.012 | [10] 0.064 | [11] 0.042 | [12] -0.008 | [13] 0.012 | [14] -0.075 | [15] 0.01 | [16] 0.044 | [17] -0.038 | [18] -0.046 | [19] -0.003 | [20] 0.005

GAGE5 (UniProt Q13069)
inactive: [1] 0.061 | [2] -0.115 | [3] 0.076 | [4] -0.121 | [5] 0.022 | [6] 0.031 | [7] -0.047 | [8] -0.028 | [9] 0.01 | [10] -0.017 | [11] 0.019 | [12] 0.011 | [13] 0.023 | [14] -0.104 | [15] -0.038 | [16] 0.019 | [17] -0.049 | [18] -0.069 | [19] 0.027 | [20] 0.071

GALNT7 (UniProt Q86SF2)
inactive: [1] 0.011 | [2] 0.033 | [3] 0.075 | [4] 0.013 | [5] 0 | [6] 0.019 | [7] -0.018 | [8] 0.009 | [9] -0.032 | [10] 0.01 | [11] 0.001 | [12] 0.019 | [13] 0.036 | [14] -0.049 | [15] -0.013 | [16] -0.011 | [17] -0.029 | [18] -0.022 | [19] -0.001 | [20] -0.033

G6PD isoform 2 (UniProt P11413)
inactive: [1] -0.029 | [2] 0.025 | [3] 0.058 | [4] -0.006 | [5] 0.004 | [6] -0.017 | [7] 0.033 | [8] 0.006 | [9] -0.031 | [10] 0.015 | [11] 0.053 | [12] -0.019 | [13] -0.029 | [14] -0.019 | [15] -0.033 | [16] 0.012 | [17] 0.005 | [18] -0.004 | [19] -0.016 | [20] 0.019

FOXJ3 (UniProt Q9UPW0)
inactive: [1] 0.114 | [2] 0.07 | [3] 0.003 | [4] 0.098 | [5] -0.011 | [6] 0.098 | [7] 0.101 | [8] 0.019 | [9] 0.059 | [10] 0.05 | [11] 0.059 | [12] -0.141 | [13] -0.132 | [14] -0.054 | [15] 0.003 | [16] -0.022 | [17] -0.019 | [18] -0.015 | [19] 0.012 | [20] -0.159

GALE (UniProt Q14376)
inactive: [1] 0.049 | [2] 0.074 | [3] 0.087 | [4] 0.087 | [5] 0.03 | [6] -0.137 | [7] 0.013 | [8] 0.012 | [9] 0.013 | [10] 0.019 | [11] 0.013 | [12] 0.035 | [13] -0.102 | [14] -0.042 | [15] -0.039 | [16] 0.03 | [17] -0.039 | [18] -0.053 | [19] -0.008 | [20] 0.067

Quoted at random: 2 records from the list, in no set order.
GALNT7 (UniProt Q86SF2)
inactive: [1] 0.011 | [2] 0.033 | [3] 0.075 | [4] 0.013 | [5] 0 | [6] 0.019 | [7] -0.018 | [8] 0.009 | [9] -0.032 | [10] 0.01 | [11] 0.001 | [12] 0.019 | [13] 0.036 | [14] -0.049 | [15] -0.013 | [16] -0.011 | [17] -0.029 | [18] -0.022 | [19] -0.001 | [20] -0.033

GAGE5 (UniProt Q13069)
inactive: [1] 0.061 | [2] -0.115 | [3] 0.076 | [4] -0.121 | [5] 0.022 | [6] 0.031 | [7] -0.047 | [8] -0.028 | [9] 0.01 | [10] -0.017 | [11] 0.019 | [12] 0.011 | [13] 0.023 | [14] -0.104 | [15] -0.038 | [16] 0.019 | [17] -0.049 | [18] -0.069 | [19] 0.027 | [20] 0.071

(cont.)

GCN1 (UniProt Q92616)
inactive: [1] 0.019 | [2] -0.098 | [3] -0.55 | [4] -0.01 | [5] 0.022 | [6] 0.012 | [7] -0.059 | [8] 0.034 | [9] -0.058 | [10] -0.234 | [11] -0.212 | [12] -0.022 | [13] 0.271 | [14] 0.315 | [15] 0.029 | [16] -0.302 | [17] 0.211 | [18] 0.649 | [19] -0.027 | [20] -0.07

FURIN (UniProt P09958)
inactive: [1] -0.019 | [2] -0.11 | [3] 0.041 | [4] 0.035 | [5] 0.08 | [6] -0.016 | [7] -0.024 | [8] -0.046 | [9] -0.166 | [10] 0.033 | [11] 0.03 | [12] 0.042 | [13] -0.006 | [14] 0.053 | [15] 0.007 | [16] -0.219 | [17] -0.001 | [18] -0.015 | [19] 0.01 | [20] -0.088

FTL (UniProt P02792)
inactive: [1] -0.151 | [2] -0.094 | [3] -0.071 | [4] 0.093 | [5] 0.053 | [6] 0.07 | [7] -0.074 | [8] -0.02 | [9] 0.093 | [10] -0.079 | [11] -0.054 | [12] -0.073 | [13] -0.116 | [14] -0.015 | [15] 0.045 | [16] -0.061 | [17] 0.055 | [18] -0.045 | [19] 0.1 | [20] -0.086

GGA1 isoform 6 (UniProt Q9UJY5)
inactive: [1] -0.009 | [2] 0.023 | [3] -0.024 | [4] -0.018 | [5] -0.007 | [6] 0.014 | [7] -0.039 | [8] -0.016 | [9] -0.014 | [10] -0.023 | [11] 0.028 | [12] -0.007 | [13] 0.018 | [14] -0.05 | [15] 0.067 | [16] 0.027 | [17] 0.067 | [18] 0.007 | [19] 0.017 | [20] 0.014

GAGE2A (UniProt Q6NT46)
inactive: [1] -0.03 | [2] -0.173 | [3] 0.05 | [4] 0.026 | [5] 0.051 | [6] 0.02 | [7] -0.071 | [8] -0.065 | [9] 0.032 | [10] -0.082 | [11] -0.009 | [12] 0.031 | [13] 0.01 | [14] -0.068 | [15] -0.045 | [16] 0.017 | [17] 0.061 | [18] -0.028 | [19] 0.035 | [20] -0.032

FUBP1 isoform 2 (UniProt Q96AE4)
inactive: [1] 0.027 | [2] -0.021 | [3] 0.004 | [4] -0.014 | [5] -0.012 | [6] 0.025 | [7] -0.022 | [8] -0.008 | [9] 0.018 | [10] 0.036 | [11] 0.027 | [12] -0.008 | [13] -0.003 | [14] -0.029 | [15] 0.004 | [16] 0.054 | [17] -0.006 | [18] -0.078 | [19] 0.008 | [20] 0.04

GGT2 isoform 3 (UniProt P36268)
inactive: [1] -0.109 | [2] 0.004 | [3] -0.108 | [4] 0.096 | [5] -0.015 | [6] 0.033 | [7] -0.04 | [8] -0.042 | [9] -0.094 | [10] 0.007 | [11] -0.077 | [12] 0.037 | [13] 0.014 | [14] -0.046 | [15] 0.244 | [16] 0.05 | [17] -0.007 | [18] -0.03 | [19] 0.023 | [20] 0.137
